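Plate-reader measure of the Venus reporter marking one vaccinia stage in infected cells (the cell line is not named here); read time unknown.
The test concentration is not given here.
Percent change in Venus reporter signal; lower (more negative) values mean stronger inhibition of that viral stage.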

Values are in %.
The controls that fix the scale are not given here.
Common to all entries: measured here: Venus reporter, other viral stage.
This is a side read-out of the assay, for part of the compounds, not drawn at random.

compound	activity change (Venus) (%)
O=C(C[C@H]1CC[C@H]2[C@@H](COC[C@H](O)CN2C(=O)Nc2ccc(Cl)c(Cl)c2)O1)NCc1ccccc1	-53.15
Cc1ccc(S(=O)(=O)Nc2ccc3c(c2)C(=O)N([C@@H](C)CO)C[C@H](C)[C@@H](CN(C)CC2CCCCC2)OCCCC[C@H](C)O3)cc1	-69.02
CC(C)NC(=O)Nc1ccc2c(c1)C(=O)N([C@H](C)CO)C[C@@H](C)[C@H](CN(C)Cc1ccc(C(F)(F)F)cc1)OCCCC[C@H](C)O2	-53.94
COc1ccccc1NC(=O)N1CCCCN2[C@H](CO)[C@@H](c3ccc(-c4ccccc4)cc3)[C@@H]2C1	-46
Cc1cccc(-c2ccc([C@@H]3[C@H](CO)N4CCCCN(S(=O)(=O)c5cn(C)cn5)C[C@@H]34)cc2)c1	-40.71
COc1cccc(NC(=O)C[C@H]2CC[C@@H]3[C@H](COc4ccc(NC(=O)C5CCCCC5)cc4C(=O)N3C)O2)c1	-20.97
CCCNC(=O)N1CC(=O)N2[C@H](CO)[C@@H](c3ccc(C#Cc4cccc(OC)c4)cc3)[C@@H]2C1	-33.94
CC(C)CC#Cc1ccc2c(c1)O[C@@H](CN(C)C(=O)c1ccccc1)[C@H](C)CN([C@H](C)CO)S2(=O)=O	-62.23
COc1ccc(CN(C)C[C@@H]2OCCCC[C@H](C)Oc3ccc(NS(=O)(=O)c4ccc(F)cc4)cc3C(=O)N([C@H](C)CO)C[C@@H]2C)cc1	-48.96
C[C@@H]1CN([C@@H](C)CO)C(=O)c2cc(NS(=O)(=O)c3cccs3)ccc2O[C@@H](C)CCCCO[C@H]1CN(C)CC1CCCCC1	-52.91
C[C@@H]1CCCCO[C@H](CN(C)Cc2ccc3c(c2)OCO3)[C@H](C)CN([C@@H](C)CO)C(=O)c2cc(NC(=O)Nc3ccc4c(c3)OCO4)ccc2O1	-54.72
C[C@H]1CN([C@@H](C)CO)S(=O)(=O)c2ccc(C3=CCCCC3)cc2O[C@H]1CN(C)C(=O)C1CCCCC1	-78.59
COc1cccc(-c2ccc3c(c2)[C@@H]2[C@@H](CCN2S(=O)(=O)c2ccc(F)cc2)[C@H](CO)N3C)c1	-57.67
C[C@@H]1CN([C@@H](C)CO)S(=O)(=O)c2ccc(C3=CCCCC3)cc2O[C@H]1CN(C)Cc1ccccc1F	-35.71
C[C@@H]1CN([C@@H](C)CO)C(=O)c2cc(NC(=O)c3ccccc3)ccc2O[C@@H](C)CCCCO[C@H]1CN(C)C(=O)CCC(F)(F)F	-28.51
C[C@H]1CN([C@@H](C)CO)S(=O)(=O)c2ccc(C#CC(C)(C)O)cc2O[C@H]1CN(C)Cc1ccc(-c2ccccc2)cc1	-56.72
C/C=C/c1ccc([C@@H]2[C@@H](CO)N3CCCCN(S(=O)(=O)c4ccc(F)cc4)C[C@H]23)cc1	-36.68
COc1ccc(S(=O)(=O)N2CCCCN3[C@H](CO)[C@@H](c4ccc(C#CC(C)C)cc4)[C@H]3C2)cc1	-68.29
COc1ccc2c3c(n(C)c2c1)[C@@H](CO)N(Cc1ccc(Cl)cc1)CC31CCN(CC2CC2)CC1	-50.36
CC(C)CC#Cc1ccc2c(c1)O[C@H](CN(C)C(=O)NC1CCCC1)[C@H](C)CN([C@H](C)CO)S2(=O)=O	-32.06
Cc1ccc(-c2ccccc2[C@@H]2[C@@H](CO)N(C(=O)NC3CCCC3)[C@H]2C#N)cc1	-26.92
O=C(Nc1ccc(F)cc1)N1CC(=O)N2[C@H](CO)[C@H](c3ccc(-c4ccc(F)cc4)cc3)[C@@H]2C1	-27.11
COc1ccccc1CNC(=O)C[C@@H]1CC[C@@H]2[C@H](COC[C@H](O)CN2Cc2cccc(-c3ccncc3)c2)O1	-43.16
C[C@@H]1CN([C@H](C)CO)S(=O)(=O)c2ccc(C#CCC3CCCC3)cc2O[C@@H]1CN(C)C(=O)c1ccccn1	-75.89
C[C@H](CO)N1C[C@H](C)[C@@H](CN(C)CC2CCCCC2)OCCCC[C@H](C)Oc2ccc(NC(=O)C3CCCCC3)cc2C1=O	-50.01
CC(C)NC(=O)Nc1ccc2c(c1)CC(=O)N([C@@H](C)CO)C[C@H](C)[C@H](CN(C)Cc1ccc(C(F)(F)F)cc1)O2	-28.64
C[C@@H]1CCCCO[C@@H](CN(C)C(=O)C2CCCCC2)[C@@H](C)CN([C@@H](C)CO)C(=O)c2cc(NC(=O)C3CCCCC3)ccc2O1	-35.91
COc1cccc(NC(=O)N(C)C[C@H]2Oc3ncc(/C=C/c4ccccc4)cc3C(=O)N([C@@H](C)CO)C[C@H]2C)c1	-39.36
C[C@H]1CN([C@@H](C)CO)C(=O)Cc2cc(NC(=O)Nc3ccc(C(F)(F)F)cc3)ccc2O[C@H]1CN(C)Cc1ccc(Cl)c(Cl)c1	-70.39
Cc1noc(C)c1S(=O)(=O)N(C)C[C@H]1OCCCC[C@@H](C)Oc2ccc(NC(=O)NC3CCCCC3)cc2C(=O)N([C@@H](C)CO)C[C@@H]1C	-30.8

Some entries from above, unchanged:

compound	activity change (Venus) (%)
C[C@@H]1CN([C@@H](C)CO)C(=O)c2cc(NS(=O)(=O)c3cccs3)ccc2O[C@@H](C)CCCCO[C@H]1CN(C)CC1CCCCC1	-52.91
COc1ccc(CN(C)C[C@@H]2OCCCC[C@H](C)Oc3ccc(NS(=O)(=O)c4ccc(F)cc4)cc3C(=O)N([C@H](C)CO)C[C@@H]2C)cc1	-48.96
COc1ccc2c3c(n(C)c2c1)[C@@H](CO)N(Cc1ccc(Cl)cc1)CC31CCN(CC2CC2)CC1	-50.36

Source: PubChem BioAssay AID1053133 (Broad Institute, 2014).